In the data set the target is FLAG-L4 (ribosomal protein L4) (Escherichia coli (expressed in BL21(DE3) rne131)) (UniProt P60723). Nature of the data set: EMSA. The note with it: EMSA: 30 C, 20 min, native 5% PAGE, ~2 ng RNA, 0.7-5.5 uM L4, buffer not given (cited method); recombinant protein; protein details: N-terminal FLAG; label: internal [alpha-32P]UTP; probe letters rebuilt from the primers and the genome. Background: Mobility shift assays separate free from complexed probe on a gel.

For at least one entry, the source does not settle the construct or the ends of the probe.

For orientation: Kd means the concentration at which binding is half-saturated.

With “GGGUUGCCCUUCUGUAGCCAUCACCAGAGCCAAACCGAUUAGAUUCAAUGUGAUCUAUUUGUUUGCUAUAUCUUAAUUUUGCCUUUUGCAAAGGUCAUCUCUCGUUUAUUUACUUGUUUUAGUAAAUGAUGGUGCUUGCAUAUAUAUCUGGCGAAUUAAUCGGUAUAGCAGAUGUAAUAUUCACAGGGAUCACUGUAAUUAAAAUAAAUGAAGGAUUAUGUAAUGGAAAACUUUAAACAUCUCCCUGAACCGUUC [tnaC-tnaA transcribed spacer RNA (gel shift)]”, the Kd came to 2.1 µM.

The record behind these values is paper PMC7186457.
